In patent US20260314594A1, “METHODS OF ENHANCING POLLEN VIABILITY OF PLANTS” (ACADEMIA SINICA, priority 2022, published 2026):

Assay: HOPA content of Easter lily stigma exudate (SE)
Parameters: species or system Easter lily (Lilium longiflorum Thunb. cv White Heaven)

Q: For `CC(C)(CO)C(O)C(=O)NCCCC(=O)O` (centres unmarked) [HOPA, hopantenic acid], which “HOPA content of 1/10 diluted stigma exudate” value (1/10 SE (v/v)) is on record?
A: Its value is “about 785 ppm”.

Q: And the “HOPA content of stigma exudate” value (Easter lily stigma exudate, undiluted)?
A: Its value is “about 7,854.8±659.08 ppm”.
